# Experimental data reported in PMC7819943, “Rice protein-binding microarrays: a tool to detect cis-acting elements near promoter regions in rice”.
# Amino acid sequences for entries named in this document (tags omitted).
# UniProt Q0JBA9, entry or part of it: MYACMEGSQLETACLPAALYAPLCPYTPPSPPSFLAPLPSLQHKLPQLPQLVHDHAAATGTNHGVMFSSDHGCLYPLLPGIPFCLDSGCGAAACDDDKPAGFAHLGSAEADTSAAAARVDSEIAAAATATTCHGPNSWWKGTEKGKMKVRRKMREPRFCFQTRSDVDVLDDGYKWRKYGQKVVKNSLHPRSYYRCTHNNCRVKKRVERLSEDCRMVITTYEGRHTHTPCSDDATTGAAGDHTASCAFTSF
# The other results are listed elsewhere or left out.
# Biological target: OsWRKY34 (Oryza sativa, UniProt Q0JBA9 1-250)
# Assay: protein-binding microarray (RPBM); PBS, 2% BSA, 51.3 ng/ul salmon testes DNA, 50 uM zinc acetate, 200 nM TF, 25 C, 1 h; high values mean tight binding
# Details: protein: recombinant; tags: N-terminal polyhistidine and DsRed monomer fusion (pET32a); label: CyDye5-dUTP incorporated in the synthesized complementary strand; 3' TTTTT single-stranded linker to array surface; dsDNA, one strand shown
# Summary of the method: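 The binding signal is fluorescence intensity per array feature (arbitrary units). Readings came from an Axon 4000B scanner after a washed, 2% BSA-blocked, double-stranded custom Agilent array had been incubated for 1 h at 25 °C with 200 nM protein and 50 µM zinc acetate. The protein was a Ni–NTA-purified transcription factor fused N-terminally to polyhistidine and DsRed, expressed in E. coli BL21-CodonPlus.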
row,Sequence,binding signal
1,TCTTGTGTACATATATGTCATTTAGGGCCAAATCAATACACGGAGTCACCTAGTGCAG,8420 fluorescence intensity (a.u.)
2,TTTTGCTGTGGTGGGAGTGGATTTGGAGGGCGTATCGGGGCGGAGTCACCTAGTGCAG,15600 fluorescence intensity (a.u.)
3,ACCTGATCATCATGCACGCACCTAGCTTAGCTTAGCTGTCCGGAGTCACCTAGTGCAG,8060 fluorescence intensity (a.u.)
4,TCCTCTTCTGTTTTTCTGTTTTTTTTCGTTTCTCTTCCCTCGGAGTCACCTAGTGCAG,13300 fluorescence intensity (a.u.)
5,GTGAAGGTTGTATTTGCGTGGATTGGAGGGGAAGCAGTGACGGAGTCACCTAGTGCAG,9290 fluorescence intensity (a.u.)
6,CATTCTCTAATCTTCCTTCCACCATTGCCTTTTGATCTTCCGGAGTCACCTAGTGCAG,10100 fluorescence intensity (a.u.)
7,GGTTCATTTATACTTATTGCTTGTGTTTAGTTACAGGATACGGAGTCACCTAGTGCAG,9240 fluorescence intensity (a.u.)
8,AGATTACGCCGTTAACTTTTTCTCACATGTTTGACCATTCCGGAGTCACCTAGTGCAG,11000 fluorescence intensity (a.u.)
9,AGATACTATCCTTGAATTTGATCTCTGCCTTTTCATATTACGGAGTCACCTAGTGCAG,9410 fluorescence intensity (a.u.)
10,AGAGTTTTTTTTTTCTTTGAAGTTTGGTCAAGTTTTTTCACGGAGTCACCTAGTGCAG,8580 fluorescence intensity (a.u.)
11,TGCTCTGGATGTCTTCTTTTTGCGGGCTTTGAATGTTGGGCGGAGTCACCTAGTGCAG,8540 fluorescence intensity (a.u.)
12,ATCGTGGACTTCTCTTAATCCCATCACCACCACTACCCGCCGGAGTCACCTAGTGCAG,10000 fluorescence intensity (a.u.)
13,GATTACATTTTTCAAACATTTTCGCTTTCGATCCACAGCTCGGAGTCACCTAGTGCAG,9790 fluorescence intensity (a.u.)
14,ATGTAAGTCATTCTAGCATTTCCCACATTTATATTGATGCCGGAGTCACCTAGTGCAG,9580 fluorescence intensity (a.u.)
15,TAATACTTTATGCGTGACTTATCTTTTTAAATTTTTTTCACGGAGTCACCTAGTGCAG,8970 fluorescence intensity (a.u.)
16,TGCATAACTTGTACCGTCCTGACAATATACCGTTTCATAGCGGAGTCACCTAGTGCAG,8440 fluorescence intensity (a.u.)
17,CTTCTGGGAGACTGCTCGTTCTTTCGTACGACTCGTCATTCGGAGTCACCTAGTGCAG,9760 fluorescence intensity (a.u.)
18,GCGCTGCGTCTTTTGACCAACCCAGTCGTTGACCCAAGACCGGAGTCACCTAGTGCAG,13900 fluorescence intensity (a.u.)
19,TCGTTTCAAAATACTTGACACCGTTGACTTTTTAGTACGTCGGAGTCACCTAGTGCAG,23300 fluorescence intensity (a.u.)
20,TCTCAACTCAGGGATGTCCTATTTTCTTCAGTCATACTACCGGAGTCACCTAGTGCAG,8200 fluorescence intensity (a.u.)
21,CTACTTTTCTACTTTATTTATGTCTTATTATAGAGTGACACGGAGTCACCTAGTGCAG,8280 fluorescence intensity (a.u.)
22,GGCGGTATCGACGAAGAATCTCGGGGCGGTGGGGAGGTTTCGGAGTCACCTAGTGCAG,17700 fluorescence intensity (a.u.)
23,ATTATGTGTTGCATGCCTCTTGCTTGTCATTCTTTACGATCGGAGTCACCTAGTGCAG,12000 fluorescence intensity (a.u.)

# A run of entries from further up, for reference:
row,Sequence,binding signal
15,TAATACTTTATGCGTGACTTATCTTTTTAAATTTTTTTCACGGAGTCACCTAGTGCAG,8970 fluorescence intensity (a.u.)
16,TGCATAACTTGTACCGTCCTGACAATATACCGTTTCATAGCGGAGTCACCTAGTGCAG,8440 fluorescence intensity (a.u.)
